PubChem BioAssay AID743454, Peter MacCallum Cancer Centre, 2014
Shown is a random part of about 18,000 reagents. In the full data, 450 (2.5%) are marked active. 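Single biological run; no consistent viability z cut-off exists, so the class columns, not z-scores, define the calls.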

Screen: 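Search for knock-downs that restore vorinostat killing in resistant colon cancer cells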 (primary screen)
System: human HCT116-VR colon cancer cells, selected for vorinostat resistance
Knock-down reagent: siRNA pool against human genes, 40 nM siRNA pool
Duration: vorinostat for 24 h, read-out about 72 h after transfection
Treatment: vorinostat at 2.5 µM final
Measured: 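Cell viability by CellTiter-Fluor and caspase 3/7 activity by luminescence, each scaled to mock wells per plate, duplicates averaged, then robust z-scored over all plates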
Direction: viability robust z-score: higher = more viable cells than screen typical; caspase robust z-score: higher = more caspase 3/7 activity than screen typical
Call rule: 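a knock-down is a hit when classed RV1 or RV2 for lowered viability, or CA1 or CA2 for caspase activation; those lethal without drug were dropped; hits were retested singly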

gene,viability hit class,caspase hit class,viability robust z-score,caspase robust z-score,Outcome
SYCP3 (synaptonemal complex protein 3),no change,no change,0.3,0.99,inactive
FAM76B (family with sequence similarity 76 member B),no change,no change,0.92,-0.3,inactive
KIAA0319,no change,no change,0.05,-1.07,inactive
H3C2 (H3 clustered histone 2),no change,no change,0.49,-0.91,inactive
ZNF391 (zinc finger protein 391),no change,no change,0.68,0.52,inactive
DHTKD1 (dehydrogenase E1 and transketolase domain containing 1),no change,no change,-0.95,-0.9,inactive
CCDC126 (coiled-coil domain containing 126),no change,CA1 (caspase activation),0.54,5.22,active
SALL2 (spalt like transcription factor 2),no change,no change,1.42,0.42,inactive
AK7 (adenylate kinase 7),no change,no change,-1.86,0.68,inactive
KRTAP3-3 (keratin associated protein 3-3),no change,no change,-1.2,-0.05,inactive
ADD3 (adducin 3),no change,no change,0.83,-0.52,inactive
"SSPOP (SCO-spondin, pseudogene)",no change,no change,1.15,-0.69,inactive
C1orf146 (chromosome 1 open reading frame 146),no change,no change,0.15,-0.68,inactive
"UQCR10 (ubiquinol-cytochrome c reductase, complex III subunit X)",no change,no change,0.61,1.39,inactive

Reformatted: entries from further up
gene | viability hit class | caspase hit class | viability robust z-score | caspase robust z-score | Outcome
AK7 (adenylate kinase 7) | no change | no change | -1.86 | 0.68 | inactive
KRTAP3-3 (keratin associated protein 3-3) | no change | no change | -1.2 | -0.05 | inactive

Further reagents:
gene,viability hit class,caspase hit class,viability robust z-score,caspase robust z-score,Outcome
SLC2A8,no change,no change,0.37,-0.22,inactive
POLR2J3 (RNA polymerase II subunit J3),RV2 (reduced viability),no change,-3.14,0.06,active
COA7 (cytochrome c oxidase assembly factor 7),no change,no change,0.42,-0.24,inactive
MYOZ1 (myozenin 1),no change,no change,-0.47,-0.87,inactive
MVB12B (multivesicular body subunit 12B),no change,no change,-2.44,2.77,inactive
LTO1 (LTO1 maturation factor of ABCE1),no change,no change,1.42,-0.92,inactive
GDF3 (growth differentiation factor 3),no change,no change,0.63,1.12,inactive
SNRPC (small nuclear ribonucleoprotein polypeptide C),no change,no change,-2.66,-1.09,inactive
FAIM (Fas apoptotic inhibitory molecule),no change,no change,-0.45,1.97,inactive
